Results taken from patent publication US20260217701A1, “SELECTIVE BET INHIBITORS AND USES THEREOF” (Tay Therapeutics Limited, priority 2022, published 2026).
Where “and” joins values, the source holds several entries; their conditions need not be identical. Identical values can stand only once. This continues a long series; more values of the same kind are listed elsewhere.

Tested on: collagen-induced arthritis
Test: Collagen-induced arthritis (CIA) model: clinical scores and paw volume; for Animal paw volume percent change (%): reference of the scale not given here
Type: in vivo, Lewis rats
Conditions: for Animal paw volume percent change (%) / clinical score (score, all limbs) / clinical score left forelimb / clinical score left hind limb / clinical score right forelimb / clinical score right hind limb / Animal paw volume: individual animals; for Overall Clinical Score: individual animals 1-8; for clinical score (score, all limbs) / clinical score left forelimb / clinical score left hind limb / clinical score right forelimb / clinical score right hind limb: CIA

## Cn1cc(-c2ccccc2)c(-c2cn(C)c(=O)c3[nH]c(-c4cnn(C(F)(F)F)c4)cc23)cc1=O [Compound A, 6-methyl-4-(1-methyl-2-oxo-5-phenyl-1,2-dihydropyridin-4-yl)-2-(1-(trifluoromethyl)-1H-pyrazol-4-yl)-1,6-dihydro-7H-pyrrolo[2,3-c]pyridin-7-one]
Day 0, L paw, group 5 CIA + Compound A 1 mg/kg
  Animal paw volume percent change (%): 0.00%
Day 0, L paw, group 6 CIA + Compound A 3 mg/kg
  Animal paw volume percent change (%): 0.00%
Day 0, L paw, group 7 CIA + Compound A 10 mg/kg
  Animal paw volume percent change (%): 0.00%
Day 0, R paw, group 5 CIA + Compound A 1 mg/kg
  Animal paw volume percent change (%): 0.00%
Day 0, R paw, group 6 CIA + Compound A 3 mg/kg
  Animal paw volume percent change (%): 0.00%
Day 0, R paw, group 7 CIA + Compound A 10 mg/kg
  Animal paw volume percent change (%): 0.00%
Day 0, CIA + Compound A 10 mg/kg
  Overall Clinical Score: 0
Day 0, 1 mg/kg
  clinical score (score, all limbs): 0
  clinical score left forelimb: 0
  clinical score left hind limb: 0
  clinical score right forelimb: 0
  clinical score right hind limb: 0
Day 0, 3 mg/kg
  clinical score (score, all limbs): 0
  clinical score left forelimb: 0
  clinical score left hind limb: 0
  clinical score right forelimb: 0
  clinical score right hind limb: 0
Day 0, 10 mg/kg
  clinical score (score, all limbs): 0
  clinical score left forelimb: 0
  clinical score left hind limb: 0
  clinical score right forelimb: 0
  clinical score right hind limb: 0
Day 0, L paw, Group 5 (CIA + Compound A 1 mg/kg), 1 mg/kg
  Animal paw volume: 1.35 mL and 1.31 mL and 1.29 mL and 1.36 mL and 1.33 mL (3×) and 1.34 mL
Day 0, L paw, Group 6 (CIA + Compound A 3 mg/kg), 3 mg/kg
  Animal paw volume: 1.32 mL (2×) and 1.29 mL and 1.37 mL and 1.31 mL (3×) and 1.34 mL
Day 0, L paw, Group 7 (CIA + Compound A 10 mg/kg), 10 mg/kg
  Animal paw volume: 1.31 mL (2×) and 1.29 mL (2×) and 1.33 mL (2×) and 1.35 mL (2×)
Day 0, R paw, Group 5 (CIA + Compound A 1 mg/kg), 1 mg/kg
  Animal paw volume: 1.35 mL and 1.31 mL and 1.30 mL and 1.38 mL and 1.33 mL (2×) and 1.36 mL and 1.32 mL
Day 0, R paw, Group 6 (CIA + Compound A 3 mg/kg), 3 mg/kg
  Animal paw volume: 1.33 mL (2×) and 1.29 mL and 1.35 mL and 1.30 mL (2×) and 1.34 mL and 1.31 mL
Day 0, R paw, Group 7 (CIA + Compound A 10 mg/kg), 10 mg/kg
  Animal paw volume: 1.31 mL and 1.29 mL (2×) and 1.32 mL and 1.34 mL (3×) and 1.30 mL
Day 6, L paw, group 5 CIA + Compound A 1 mg/kg, 1 mg/kg
  Animal paw volume percent change (%): 0.74% and 1.53% and 0.39% and 2.95% and 1.51% (2×) and 2.25% and 1.89%
Day 6, L paw, group 6 CIA + Compound A 3 mg/kg, 3 mg/kg
  Animal paw volume percent change (%): 0.00% (2×) and 4.67% and 1.90% and 0.77% and 1.50% and 1.15% and 1.53%
Day 6, L paw, group 7 CIA + Compound A 10 mg/kg, 10 mg/kg
  Animal paw volume percent change (%): 1.15% and 0.00% (2×) and 3.02% (2×) and 3.72% and 1.49% and 0.77%
Day 6, R paw, group 5 CIA + Compound A 1 mg/kg, 1 mg/kg
  Animal paw volume percent change (%): 0.74% (2×) and 1.53% and 0.00% and 2.18% and 1.51% and 2.28% and 2.26%
Day 6, R paw, group 6 CIA + Compound A 3 mg/kg, 3 mg/kg
  Animal paw volume percent change (%): 0.00% (2×) and 3.89% and 2.26% and 2.32% (2×) and 0.75% and 1.53%
Day 6, R paw, group 7 CIA + Compound A 10 mg/kg, 10 mg/kg
  Animal paw volume percent change (%): 0.00% (4×) and 3.79% and 4.10% and 2.24% and 2.62%
Day 6, CIA + Compound A 10 mg/kg
  Overall Clinical Score: 0
Day 6, 1 mg/kg
  clinical score (score, all limbs): 0
  clinical score left forelimb: 0
  clinical score left hind limb: 0
  clinical score right forelimb: 0
  clinical score right hind limb: 0
Day 6, 3 mg/kg
  clinical score (score, all limbs): 0
  clinical score left forelimb: 0
  clinical score left hind limb: 0
  clinical score right forelimb: 0
  clinical score right hind limb: 0
Day 6, 10 mg/kg
  clinical score (score, all limbs): 0
  clinical score left forelimb: 0
  clinical score left hind limb: 0
  clinical score right forelimb: 0
  clinical score right hind limb: 0
Day 6, L paw, Group 5 (CIA + Compound A 1 mg/kg), 1 mg/kg
  Animal paw volume: 1.36 mL and 1.33 mL and 1.30 mL and 1.40 mL and 1.35 mL (3×) and 1.37 mL
Day 6, L paw, Group 6 (CIA + Compound A 3 mg/kg), 3 mg/kg
  Animal paw volume: 1.32 mL (2×) and 1.35 mL and 1.34 mL and 1.37 mL and 1.36 mL and 1.33 mL (2×)
Day 6, L paw, Group 7 (CIA + Compound A 10 mg/kg), 10 mg/kg
  Animal paw volume: 1.32 mL (2×) and 1.29 mL (2×) and 1.37 mL (3×) and 1.40 mL
Day 6, R paw, Group 5 (CIA + Compound A 1 mg/kg), 1 mg/kg
  Animal paw volume: 1.36 mL (2×) and 1.33 mL and 1.30 mL and 1.41 mL and 1.35 mL (2×) and 1.37 mL
Day 6, R paw, Group 6 (CIA + Compound A 3 mg/kg), 3 mg/kg
  Animal paw volume: 1.33 mL (4×) and 1.34 mL and 1.36 mL and 1.35 mL (2×)
Day 6, R paw, Group 7 (CIA + Compound A 10 mg/kg), 10 mg/kg
  Animal paw volume: 1.31 mL and 1.29 mL (2×) and 1.37 mL (3×) and 1.40 mL and 1.30 mL
Day 12, L paw, group 5 CIA + Compound A 1 mg/kg, 1 mg/kg
  Animal paw volume percent change (%): 2.97% and 4.21% and 2.71% and 5.17% and 8.30% and 4.49% and 3.02% (2×)
Day 12, L paw, group 6 CIA + Compound A 3 mg/kg, 3 mg/kg
  Animal paw volume percent change (%): 0.76% and 5.45% and 2.28% and 1.47% and 3.07% and 2.25% and 3.44% and 16.09%
Day 12, L paw, group 7 CIA + Compound A 10 mg/kg, 10 mg/kg
  Animal paw volume percent change (%): 4.60% and 3.11% and 3.77% and 4.46% and 2.23% and 3.02% and 1.56% and 3.83%
Day 12, R paw, group 5 CIA + Compound A 1 mg/kg, 1 mg/kg
  Animal paw volume percent change (%): 2.23% and 3.45% and 3.09% and 4.36% and 18.11% and 5.17% and 3.04% and 12.08%
Day 12, R paw, group 6 CIA + Compound A 3 mg/kg, 3 mg/kg
  Animal paw volume percent change (%): 2.26% (2×) and 5.84% and 2.23% and 3.86% and 1.50% and 2.30% and 7.72%
Day 12, R paw, group 7 CIA + Compound A 10 mg/kg, 10 mg/kg
  Animal paw volume percent change (%): 2.30% and 3.11% and 5.68% and 3.36% and 12.31% and 2.25% and 2.33% and 3.86%
Day 12, CIA + Compound A 3 mg/kg, 3 mg/kg
  Overall Clinical Score: 1
Day 12, CIA + Compound A 10 mg/kg, 10 mg/kg
  Overall Clinical Score: 0 (7×) and 2
Day 12, 1 mg/kg
  clinical score left forelimb: 0
  clinical score left hind limb: 0
  clinical score right forelimb: 0
Day 12, 1 mg/kg, 1 mg/kg
  clinical score (score, all limbs): 0 (7×) and 1
  clinical score right hind limb: 0 (7×) and 1
Day 12, 3 mg/kg
  clinical score left forelimb: 0
  clinical score right forelimb: 0
  clinical score right hind limb: 0
Day 12, 3 mg/kg, 3 mg/kg
  clinical score (score, all limbs): 0 (7×) and 1
  clinical score left hind limb: 0 (7×) and 1
Day 12, 10 mg/kg
  clinical score left forelimb: 0
  clinical score left hind limb: 0
Day 12, 10 mg/kg, 10 mg/kg
  clinical score (score, all limbs): 0 (7×) and 2
  clinical score right forelimb: 0 (7×) and 1
  clinical score right hind limb: 0 (7×) and 1
Day 12, L paw, Group 5 (CIA + Compound A 1 mg/kg), 1 mg/kg
  Animal paw volume: 1.39 mL and 1.36 mL and 1.33 mL and 1.43 mL and 1.44 mL and 1.40 mL and 1.37 mL (2×)
Day 12, L paw, Group 6 (CIA + Compound A 3 mg/kg), 3 mg/kg
  Animal paw volume: 1.33 mL and 1.36 mL (2×) and 1.35 mL (2×) and 1.39 mL and 1.37 mL and 1.52 mL
Day 12, L paw, Group 7 (CIA + Compound A 10 mg/kg), 10 mg/kg
  Animal paw volume: 1.37 mL (2×) and 1.33 mL and 1.38 mL (2×) and 1.41 mL and 1.31 mL and 1.36 mL
Day 12, R paw, Group 5 (CIA + Compound A 1 mg/kg), 1 mg/kg
  Animal paw volume: 1.38 mL and 1.35 mL and 1.34 mL and 1.44 mL and 1.57 mL and 1.43 mL and 1.36 mL and 1.49 mL
Day 12, R paw, Group 6 (CIA + Compound A 3 mg/kg), 3 mg/kg
  Animal paw volume: 1.36 mL (4×) and 1.38 mL and 1.35 mL and 1.34 mL and 1.40 mL
Day 12, R paw, Group 7 (CIA + Compound A 10 mg/kg), 10 mg/kg
  Animal paw volume: 1.34 mL and 1.33 mL and 1.40 mL and 1.39 mL and 1.51 mL and 1.37 mL and 1.32 mL and 1.35 mL
Day 13, L paw, group 5 CIA + Compound A 1 mg/kg, 1 mg/kg
  Animal paw volume percent change (%): 4.83% and 6.13% and 4.26% and 5.17% and 18.11% and 6.74% and 7.55% and 6.79%
Day 13, L paw, group 6 CIA + Compound A 3 mg/kg, 3 mg/kg
  Animal paw volume percent change (%): 2.28% (2×) and 8.56% and 2.20% and 8.43% and 3.75% and 6.49% and 18.39%
Day 13, L paw, group 7 CIA + Compound A 10 mg/kg, 10 mg/kg
  Animal paw volume percent change (%): 4.60% and 5.45% and 7.55% and 4.46% and 23.42% and 4.53% and 2.33% and 5.36%
Day 13, R paw, group 5 CIA + Compound A 1 mg/kg, 1 mg/kg
  Animal paw volume percent change (%): 3.72% and 5.36% and 4.63% and 4.36% and 18.87% and 5.90% and 3.80% and 14.34%
Day 13, R paw, group 6 CIA + Compound A 3 mg/kg, 3 mg/kg
  Animal paw volume percent change (%): 3.02% (2×) and 5.84% and 5.95% and 4.63% and 3.75% and 5.36% and 18.53%
Day 13, R paw, group 7 CIA + Compound A 10 mg/kg, 10 mg/kg
  Animal paw volume percent change (%): 2.30% and 3.89% and 6.44% and 19.03% and 16.04% and 2.25% and 4.67% and 4.63%
Day 13, CIA + Compound A 3 mg/kg, 3 mg/kg
  Overall Clinical Score: 2
Day 13, CIA + Compound A 10 mg/kg, 10 mg/kg
  Overall Clinical Score: 0 (6×) and 1 and 3
Day 13, L paw, Group 5 (CIA + Compound A 1 mg/kg), 1 mg/kg
  Animal paw volume: 1.41 mL and 1.39 mL and 1.35 mL and 1.43 mL (3×) and 1.57 mL and 1.42 mL
Day 13, L paw, Group 6 (CIA + Compound A 3 mg/kg), 3 mg/kg
  Animal paw volume: 1.35 mL (2×) and 1.40 mL (3×) and 1.42 mL and 1.39 mL and 1.55 mL
